Our source for the binding values is US20030157554A1.

The chains behind the UniProt entries cited, without tags or fusion partners. Where a name states a change or a piece, a line headed by the entry shows the natural chain unless it says otherwise.
UniProt P16083: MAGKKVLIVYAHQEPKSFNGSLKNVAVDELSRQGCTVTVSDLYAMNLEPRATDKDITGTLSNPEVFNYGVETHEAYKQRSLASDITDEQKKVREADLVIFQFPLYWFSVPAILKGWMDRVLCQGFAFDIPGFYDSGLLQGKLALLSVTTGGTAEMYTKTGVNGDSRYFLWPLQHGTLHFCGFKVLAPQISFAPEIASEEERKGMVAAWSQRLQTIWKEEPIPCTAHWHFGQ

No constants are given. Whether binding was seen depends on the method and setting. For some of these results: Binding calls can cover weak binding; strength is not graded here.

Experiment [1] concerns the target Fibrinogen (Genbank ID: M58569), S100B interactor (human). The experiment is described as follows: Y2H 1x1 mating, binder AD fusion, target BD fusion.
Experiment [2] deals with NQO2 (Genbank ID: J02888) (human) (UniProt P16083). Description: Y2H 1x1 mating, binder AD fusion, target BD fusion.
Experiment [3] has the same target. Description: Y2H 1x1 mating, binder bait column, target prey column.
The target is the same in experiment [4]. Description: Y2H.
Experiment [5] has the same target. The experiment is described as follows: Y2H 1x1 mating.
The target in experiment [6] is SNAP25A (Genbank ID: D21267) (human). The experiment is described as follows: Y2H 1x1 mating, binder AD fusion, target BD fusion.

B1: S100A9 (Genbank ID: M26311) (protein, human, UniProt P06702 1-114, looked up)
chain: MTCKMSQLERNIETIINTFHQYSVKLGHPDTLNQGEFKELVRKDLQNFLKKENKNEKVIEHIMEDLDTNADKQLSFEEFIMLMARLTWASHEKMHEGDEGPGHHHKPGLGEGTP
As for B1, the binding result in experiment [1] and in experiment [2] was “no binding” each time.

B2: Synphilin (Genbank ID: AF076929) (protein, human, UniProt Q9Y6H5 335-660, looked up)
chain: PHLAADNLDKIHDENGNNLLHIAASQGHAECLQHLTSLMGEDCLNERNTEKLTPAGLAIKNGQLECVRWMVSETEAIAELSCSKDFPSLIHYAGCYGQEKILLWLLQFMQEQGISLDEVDQDGNSAVHVASQHGYLGCIQTLVEYGANVTMQNHAGEKPSQSAERQGHTLCSRYLVVVETCMSLASQVVKLTKQLKEQTVERVTLQNQLQQFLEAQKSEGKSLPSSPSSPSSPASRKSQWKSPDADDDSVAKSKPGVQEGIQVLGSLSASSRARPKAKDEDSDKILRQLLGKEISENVCTQEKLSLEFQDAQASSRNSKKIPLEKR
As for B2, the binding entry in experiment [1] and in experiment [2] was “no binding” in each case.

B3: LZIP (Genbank ID: AF029674) (protein, human, UniProt O43889 1-371, looked up)
chain: MELELDAGDQDLLAFLLEESGDLGTAPDEAVRAPLDWALPLSEVPSDWEVDDLLCSLLSPPASLNILSSSNPCLVHHDHTYSLPRETVSMDLESESCRKEGTQMTPQHMEELAEQEIARLVLTDEEKSLLEKEGLILPETLPLTKTEEQILKRVRRKIRNKRSAQESRRKKKVYVGGLESRVLKYTAQNMELQNKVQLLEEQNLSLLDQLRKLQAMVIEISNKTSSSSTCILVLLVSFCLLLVPAMYSSDTRGSLPAEHGVLSRQLRALPSEDPYQLELPALQSEVPKDSTHQWLDGSDCVLQAPGNTSCLLHYMPQAPSAEPPLEWPFPDLFSEPLCRGPILPLQANLTRKGGWLPTGSPSVILQDRYSG
In the case of B3, the binding result is “binds” in experiment [3], “binds” in experiment [4], “binds” in experiment [5] and “no binding” in experiment [6].

B4: FHOS (Genbank ID: AF113615) (protein, human, UniProt Q9Y613 964-1164, looked up)
chain: TPQAAREVRIMQFCHTLREFALEYRTCRERVLQQQQKQATYRERNKTRGRMITETEKFSGVAGEAPSNPSVPVAVSSGPGRGDADSHASMKSLLTSRPEDTTHNRRSRGMVQSSSPIMPTVGPSTASPEEPPGSSLPSDTSDEIMDLLVQSVTKSSPRALAARERKRSRGNRKSLRRTLKSGLGDDLVQALGLSKGPGLEV
With B4, the binding result in experiment [1] and in experiment [2] was “no binding” throughout.
